Measurements: PubChem BioAssay AID256 (DTP/NCI, 2004)
The list does not hold the whole screen: it is rich in T/C values a quarter to a half above the control, in often repeated tests (any T/C) and in doses without a T/C. Other doses and runs of a compound stand elsewhere. T/C is the treated group as % of the vehicle group. Some entries give survivors of the animals treated and no T/C: the source holds a T/C of zero for them, seemingly a mark for toxic or unscored doses. Some doses without a T/C left all or most animals alive at the check, yet need not have been tolerated: the source hardly ever lists a survival T/C far under the control, and the zero likely stands for such cases as well. Counts of survivors are from the toxicity check (mostly the fifth day) where no day follows; animals may have died later. Schedule codes are those of the source, taken here to give the interval after Q, in days (D) or hours (H), and the number of doses after X. Where survival is the endpoint, the PubChem record calls one and a half times the control and up active, and a quarter to a half above the control has no call in these data; cut-offs in other NCI protocols can differ. Some entries were tested several times; their values stand side by side, smallest first. Signs of the kind (2×) stand for listed records that agree.

Tested on: CD2F1 mice, L1210 leukemia ip, survival T/C
Assay: NCI In Vivo Anticancer Drug Screen. Data for tumor model L1210 Leukemia (intraperitoneal) in CD2F1 (CDF1) mice
Conditions: higher T/C = longer survival
Outline: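 Vehicle-treated tumor-bearing mice served as controls (C) for compound-treated mice (T). Reported figure is T divided by C.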

[1] = T/C endpoint: mean survival time, dose: 200.0 mg/kg/injection, schedule: Q01DX009 (ip), vehicle: saline
[2] = T/C endpoint: mean survival time, dose: 400.0 mg/kg/injection, schedule: Q04DX003 (ip), vehicle: saline
[3] = T/C endpoint: mean survival time, dose: 100.0 mg/kg/injection, schedule: Q04DX003 (ip), vehicle: saline with Tween-80
[4] = T/C endpoint: mean survival time, dose: 400.0 mg/kg/injection, schedule: Q04DX003 (ip), vehicle: saline with Tween-80

O=c1ncccn1[C@@H]1O[C@H](CO)[C@H](O)C1O (some centres undefined)
T/C (T/C endpoint: median survival time, dose: 50.0 mg/kg/injection, schedule: Q01DX009 (ip), vehicle: saline, evaluated on day 20): 126 % of control
T/C (T/C endpoint: median survival time, dose: 50.0 mg/kg/injection, schedule: Q01DX009 (ip), vehicle: saline, evaluated on day 30): 107, 114, 118 (2×), 119 % of control
T/C (T/C endpoint: median survival time, dose: 100.0 mg/kg/injection, schedule: Q01DX009 (ip), vehicle: saline, evaluated on day 20): 155 % of control
T/C (T/C endpoint: median survival time, dose: 100.0 mg/kg/injection, schedule: Q01DX009 (ip), vehicle: saline, evaluated on day 30): 124, 130, 131, 135, 148 % of control
T/C (T/C endpoint: median survival time, dose: 200.0 mg/kg/injection, schedule: Q01DX009 (ip), vehicle: saline, evaluated on day 20): 164 % of control
T/C (T/C endpoint: median survival time, dose: 200.0 mg/kg/injection, schedule: Q01DX009 (ip), vehicle: saline, evaluated on day 30): 131, 137, 141, 144, 166 % of control
T/C (T/C endpoint: median survival time, dose: 400.0 mg/kg/injection, schedule: Q01DX009 (ip), vehicle: saline, evaluated on day 20): 181 % of control
T/C (T/C endpoint: median survival time, dose: 400.0 mg/kg/injection, schedule: Q01DX009 (ip), vehicle: saline, evaluated on day 30): 146, 151, 164, 175 % of control (2×)
T/C (T/C endpoint: median survival time, dose: 400.0 mg/kg/injection, schedule: Q01DX009 (oral), vehicle: saline): 130 % of control
T/C (T/C endpoint: median survival time, dose: 800.0 mg/kg/injection, schedule: Q01DX009 (ip), vehicle: saline, evaluated on day 20): 189 % of control
T/C (T/C endpoint: median survival time, dose: 800.0 mg/kg/injection, schedule: Q01DX009 (ip), vehicle: saline, evaluated on day 30): 128, 166, 193 % of control

Cc1cccc(NC(=O)Nc2ccc(Oc3ccccc3Cl)c(S(=O)(=O)O)c2)c1
survivor count [1]: 0 of 6
survivor count [2]: 1 of 6

CC1CCC(C(C)C)C(OC(=O)N/N=C/N(C)C)C1 (centres undefined)
survivor count (T/C endpoint: mean survival time, dose: 400.0 mg/kg/injection, schedule: Q01DX009 (ip), vehicle: other): 1 of 6

NC(=S)c1cc(C(N)=S)[nH]n1
survivor count (T/C endpoint: mean survival time, dose: 100.0 mg/kg/injection, schedule: Q01DX005 (ip), vehicle: other): 0 of 3

NC(=O)N/N=C/c1cccs1
survivor count (T/C endpoint: mean survival time, dose: 100.0 mg/kg/injection, schedule: Q01DX009 (ip), vehicle: saline with Tween-80): 3 of 3
survivor count [3]: 3 of 3

CN(C)N=Nc1cccc(Cl)c1
survivor count (T/C endpoint: mean survival time, dose: 400.0 mg/kg/injection, schedule: Q01DX009 (ip), vehicle: Klucel (hydroxypropylcellulose) (HPC)): 0 of 6

COC(C(OC)N1CCOCC1)N1CCOCC1 (centres undefined)
survivor count [4]: 6 of 6

CCC1(O)C(=O)OCc2c1cc1n(c2=O)Cc2cc3cc(C)ccc3nc2-1 (centres undefined)
T/C (T/C endpoint: median survival time, dose: 80.0 mg/kg/injection, schedule: Q04DX002 (ip), vehicle: saline with Tween-80): 147 % of control

CC(=O)OCC1OC(n2ncnc2CBr)C(OC(C)=O)C(OC(C)=O)C1OC(C)=O (centres undefined)
survivor count (T/C endpoint: median survival time, dose: 100.0 mg/kg/injection, schedule: Q01DX005 (ip), vehicle: distilled water + Tween-80): 0 of 6
survivor count (T/C endpoint: median survival time, dose: 200.0 mg/kg/injection, schedule: Q01DX005 (ip), vehicle: distilled water + Tween-80): 0 of 6

CN(CO)c1nc(N(C)CO)nc(N(C)CO)n1
T/C (T/C endpoint: mean survival time, dose: 100.0 mg/kg/injection, schedule: Q01DX009 (ip), vehicle: saline): 126 % of control
T/C [1]: 129 % of control
survivor count [1]: 6 of 6
survivor count (T/C endpoint: mean survival time, dose: 400.0 mg/kg/injection, schedule: Q01DX009 (ip), vehicle: saline): 1 of 6

CCCCNC(=O)C1CC2c3cccc4c3C(CN4)CC2N(C)C1 (centres undefined)
survivor count (T/C endpoint: mean survival time, dose: 200.0 mg/kg/injection, schedule: Q04DX003 (ip), vehicle: saline with Tween-80): 2 of 6

C=C(C)CNCC(=C)C
survivor count (T/C endpoint: mean survival time, dose: 200.0 mg/kg/injection, schedule: Q04DX003 (ip), vehicle: saline): 0 of 6
survivor count [2]: 0 of 6

SCc1nc2ccccc2[nH]1
survivor count (T/C endpoint: mean survival time, dose: 400.0 mg/kg/injection, schedule: Q01DX001 (ip), vehicle: saline with Tween-80): 1 of 6

COc1cc2c(cc1OC)NC(=O)CC(=O)N2
survivor count [3]: 6 of 6

CCOC(=O)c1cnc(N(C)C)nc1SC(=N)N
survivor count [1]: 1 of 6
survivor count [2]: 0 of 6

c1ccc(NC2=NCCO2)cc1
survivor count [4]: 2 of 6
